In patent US9549905B2, “Treatment of inflammatory and infectious skin disorders” (The Regents of the University of California, priority 2011, dated 2017):
Some entries share one result that the patent states for a list of compounds.

System: Propionibacterium acnes ATCC strain 6919
Assay: Colony Forming Unit (CFU) assay of P. acnes over 10 days
Format: cell-based
Conditions: FIG. 2A / 2B
Protocol: FIG. 2A. […] Bacterial growth was assessed in terms of the growth factor of P. acnes (Y-axis), determined by the change in the number of bacteria compared to baseline control (set at 1 on Day 0). Concentrations were obtained over a 10-day period and plotted logarithmically. FIG. 2B. Colony Forming Unit (CFU) assays of P. acnes incubated with Benzoyl Peroxide (BPO). FIG. 2C. […] FIG. 2D. […] Having described the invention in general terms, the following specific example is offered for purpose of illustration and for illustration only, and no intention to limit the invention is to be inferred there from. […] Resveratrol and benzoyl peroxide were obtained from Sigma-Aldrich St. Louis, Mo. […] Propionibacterium acnes ATCC […] strain 6919 was grown anaerobically at 37° C. in Reinforced Clostridial Media (Oxoid) for 3 days and collected in the exponential phase of growth by centrifugation. Bacteria were washed with pH 7 sodium phosphate buffer supplemented by 0.03% Trypticase Soy Media and quantified by reading with a spectrophotometer at 600 nm and applying a conversion of ˜1×10^8 bacteria=1 absorbance unit. […] Samples were incubated anaerobically at 37° C. for intervals of 1, 2, 3, 7, and 10 days and then plated on brucella agar with 5% sheep blood supplemented with hemin and vitamin K (Remel). […]

Compound | concentration effective at reducing the amount of P. acnes bacteria in vitro
O=C(OOC(=O)c1ccccc1)c1ccccc1 [BPO, Benzoyl Peroxide] | 50 to 100 µg/mL
Oc1ccc(C=Cc2cc(O)cc(O)c2)cc1 [RES, 3,5,4′-trihydroxystilbene] | 50 to 100 µg/mL
